Data from publication PMC9381590.
Results are given in words; binding and its absence hold for the method and conditions named. In cells and extracts the contact can be indirect. A yes stands for co-enrichment or nearness to the bait. Other partners may have been found.

By UniProt entry, the sequences of proteins in these tests, tags left out. Where a name states a change or a piece, a line headed by the entry shows the natural chain unless it says otherwise.
UniProt Q13838: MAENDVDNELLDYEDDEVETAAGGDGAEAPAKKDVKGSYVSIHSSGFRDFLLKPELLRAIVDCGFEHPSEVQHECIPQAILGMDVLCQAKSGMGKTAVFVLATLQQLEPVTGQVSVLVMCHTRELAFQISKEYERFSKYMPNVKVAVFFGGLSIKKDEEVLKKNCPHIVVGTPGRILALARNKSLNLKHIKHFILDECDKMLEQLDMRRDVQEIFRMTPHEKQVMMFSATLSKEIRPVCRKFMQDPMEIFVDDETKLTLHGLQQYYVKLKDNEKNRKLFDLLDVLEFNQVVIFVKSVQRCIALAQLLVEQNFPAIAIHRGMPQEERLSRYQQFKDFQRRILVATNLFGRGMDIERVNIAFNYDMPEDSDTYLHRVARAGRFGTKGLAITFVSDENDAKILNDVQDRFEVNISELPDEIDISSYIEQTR

Target: FLAG-DDX39B (human) (UniProt Q13838)
Assay: affinity purification with mass spectrometry; lysates of CRC cells stably expressing FLAG-vector or FLAG-DDX39B, anti-FLAG M2 magnetic beads, SDS-PAGE bands, LC-MS/MS

Binder	binding
SARNP (protein, UniProt P82979 1-210) MATETVELHKLKLAELKQECLARGLETKGIKQDLIHRLQAYLEEHAEEEANEEDVLGDETEEEETKPIELPVKEEEPPEKTVDVAAEKKVVKITSEIPQTERMQKRAERFNVPVSLESKKAARAARFGISSVPTKGLSSDNKPMVNLDKLKERAQRFGLNVSSISRKSEDDEKLKKRKERFGIVTSSAGTGTTEDTEAKKRKRAERFGIA	binds
PFKP (protein, UniProt Q01813 1-784) MDADDSRAPKGSLRKFLEHLSGAGKAIGVLTSGGDAQGMNAAVRAVVRMGIYVGAKVYFIYEGYQGMVDGGSNIAEADWESVSSILQVGGTIIGSARCQAFRTREGRLKAACNLLQRGITNLCVIGGDGSLTGANLFRKEWSGLLEELARNGQIDKEAVQKYAYLNVVGMVGSIDNDFCGTDMTIGTDSALHRIIEVVDAIMTTAQSHQRTFVLEVMGRHCGYLALVSALACGADWVFLPESPPEEGWEEQMCVKLSENRARKKRLNIIIVAEGAIDTQNKPITSEKIKELVVTQLGYDTRVTILGHVQRGGTPSAFDRILASRMGVEAVIALLEATPDTPACVVSLNGNHAVRLPLMECVQMTQDVQKAMDERRFQDAVRLRGRSFAGNLNTYKRLAIKLPDDQIPKTNCNVAVINVGAPAAGMNAAVRSAVRVGIADGHRMLAIYDGFDGFAKGQIKEIGWTDVGGWTGQGGSILGTKRVLPGKYLEEIATQMRTHSINALLIIGGFEAYLGLLELSAAREKHEEFCVPMVMVPATVSNNVPGSDFSIGADTALNTITDTCDRIKQSASGTKRRVFIIETMGGYCGYLANMGGLAAGADAAYIFEEPFDIRDLQSNVEHLTEKMKTTIQRGLVLRNESCSENYTTDFIYQLYSEEGKGVFDCRKNVLGHMQQGGAPSPFDRNFGTKISARAMEWITAKLKEARGRGKKFTTDDSICVLGISKRNVIFQPVAELKKQTDFEHRIPKEQWWLKLRPLMKILAKYKASYDVSDSGQLEHVQPWSV	binds
